Data from PMC5880400, “FIN219/JAR1 and cryptochrome1 antagonize each other to modulate photomorphogenesis under blue light in Arabidopsis” (PLoS Genetics, 2018).
No constants are given. Whether binding was seen depends on the method and setting. Binding seen in cells or lysates may run through a third protein. Some binding calls cover weakened binding; strength is not graded here. For part of these data: Sequences can lack the tags named with a protein.

The chains behind the UniProt entries cited, without tags or fusion partners.
UniProt Q43125: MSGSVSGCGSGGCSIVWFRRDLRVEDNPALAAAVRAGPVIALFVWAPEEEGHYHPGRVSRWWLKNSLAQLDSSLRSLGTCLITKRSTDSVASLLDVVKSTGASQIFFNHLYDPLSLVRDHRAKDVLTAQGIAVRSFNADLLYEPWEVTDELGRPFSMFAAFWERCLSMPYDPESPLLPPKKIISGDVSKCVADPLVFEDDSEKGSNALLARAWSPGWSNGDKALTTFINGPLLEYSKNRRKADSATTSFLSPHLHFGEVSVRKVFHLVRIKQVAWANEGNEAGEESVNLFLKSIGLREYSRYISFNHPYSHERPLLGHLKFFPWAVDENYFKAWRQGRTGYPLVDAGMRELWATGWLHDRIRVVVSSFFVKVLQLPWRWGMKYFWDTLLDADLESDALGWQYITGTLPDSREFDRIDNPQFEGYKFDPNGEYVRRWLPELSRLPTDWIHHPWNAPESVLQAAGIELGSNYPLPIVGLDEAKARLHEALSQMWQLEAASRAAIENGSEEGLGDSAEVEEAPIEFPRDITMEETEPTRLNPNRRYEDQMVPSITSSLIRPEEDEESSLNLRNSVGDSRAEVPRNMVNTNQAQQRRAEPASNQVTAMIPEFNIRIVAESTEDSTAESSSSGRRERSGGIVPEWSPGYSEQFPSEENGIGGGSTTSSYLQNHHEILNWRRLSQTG

What was measured:
[1] = target: T1, FIN219/JAR1, endogenous in Arabidopsis seedlings (Arabidopsis thaliana (endogenous in seedlings)) (UniProt Q9SKE2); assay: co-IP; 2 mg total protein of GUS-CCT1 transgenic or wild-type Col-0 seedlings grown in the dark or blue light with or without MeJA; precipitated with FIN219 monoclonal antibodies, 4°C 4 h; probed with GUS, COP1 or CRY1 polyclonal antibodies
T1 sequence: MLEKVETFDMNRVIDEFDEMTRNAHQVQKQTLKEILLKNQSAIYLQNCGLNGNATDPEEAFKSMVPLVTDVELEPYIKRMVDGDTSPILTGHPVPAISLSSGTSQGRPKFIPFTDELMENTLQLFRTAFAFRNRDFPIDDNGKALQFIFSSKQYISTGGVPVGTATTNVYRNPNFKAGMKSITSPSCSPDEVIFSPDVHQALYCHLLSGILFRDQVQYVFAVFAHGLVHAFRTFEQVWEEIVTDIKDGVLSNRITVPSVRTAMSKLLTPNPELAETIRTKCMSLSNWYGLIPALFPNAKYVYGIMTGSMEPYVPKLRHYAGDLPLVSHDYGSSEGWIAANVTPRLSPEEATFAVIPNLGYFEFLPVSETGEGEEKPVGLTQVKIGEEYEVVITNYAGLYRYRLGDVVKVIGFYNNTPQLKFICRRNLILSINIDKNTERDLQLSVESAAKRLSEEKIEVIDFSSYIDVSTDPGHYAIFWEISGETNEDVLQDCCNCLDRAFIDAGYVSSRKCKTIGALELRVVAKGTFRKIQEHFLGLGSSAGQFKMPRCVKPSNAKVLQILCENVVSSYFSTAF

[2] = target: T2, YC-FIN219 (full-length FIN219 in 35p-YFP-C84/pRTL2) (Arabidopsis thaliana) (UniProt Q9SKE2); assay: split reporter; BiFC (YFP-N155 / YFP-C84) in Arabidopsis Col-0 mesophyll protoplasts under blue light (2.2 umol m^-2 s^-1), without or with 50 uM MeJA
T2 sequence: T1 sequence

[3] = target: T2, YC-FIN219 (full-length FIN219 in 35p-YFP-C84/pRTL2) (Arabidopsis thaliana); assay: split reporter; BiFC (YFP-N155 / YFP-C84) in Arabidopsis Col-0 mesophyll protoplasts in the dark, without or with 50 uM MeJA

| binding [1] | binding [2] | binding [3] | Substance |
| --- | --- | --- | --- |
| binds | – | – | CRY1 (cryptochrome1), endogenous in wild-type Col-0 seedlings (from UniProt Q43125 1-681) |
| – | binds | no binding (condition: in the dark) | YN-CRY1 (full-length CRY1 in 35p-YFP-N155/pRTL2) (from UniProt Q43125 1-681) |
